According to patent US20060058364A1, “Treatment of dependence and dependence related withdrawal symptoms” (priority 2002, published 2006):
At least one structure is not confirmed: it was looked up by name or label, or the drawing left a doubt.

Test system: atipamezole cue (atipamezole-associated lever selection)
Format: in vivo
Details: i.p., tested 1-10 mg/kg, at the dose of 10 mg/kg, 30 min before session; FIG. 2
Method: A total of 50 Sprague-Dawley male rats (B&K, Sweden) were used in the drug discrimination experiment at Orion Pharma, Turku, Finland. The rats were housed in solid bottom polypropylene cages with stainless steel mesh lids 5 rats per cage on a 12/12 hour light/dark cycle (lights on at 06.00 a.m.) under standard conditions in 21±1° C. temperature. […] During training period the rats were allowed food 6-15 g/day immediately after the session and during testing period they were allowed 12-15 g/day after the session. The rats adopted well to this feeding schedule and grew slowly but steadily. Rats were drug and experimentally naive at the start of the experiments. All experimentation was approved by the local laboratory animal care and experimentation committee. The animals were housed according to the recommendations of Declaration of Helsinki and DHEW pub. No (NIH) 85-23 entitled “Guide for the care and use of laboratory animals”. […]
The training to press levers for reward pellets was started with 50 rats with a continuous reinforcement (CRF) schedule, when both levers were active and later by changing daily the active lever. […] During training only the drug- or saline-appropriate lever was active, but both levers were recorded. […]

COC(=O)[C@H]1[C@@H](OC(=O)c2ccccc2)C[C@@H]2CC[C@H]1N2C [Cocaine]
generalization to atipamezole cue: almost total generalization
